Measured data: PubChem BioAssay AID1671195 (Yale University, 2021)
Test: 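Regulators of LDL receptor activity judged by labelled LDL uptake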 (primary screen). System: human Huh7 hepatoma cells. Reagents: siRNA pool against human genes, 18 nM. Timing: about 2 to 2.5 days of knockdown, then 8 h LDL uptake. Treatment: DiI-labelled LDL at 30 µg/ml for 8 h, in lipoprotein-deficient serum medium. Read-out: 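Per-cell DiI-LDL intensity by automated imaging; well means scaled to the plate median and given as a robust z-score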. Reading the numbers: robust z-score: higher = more LDL uptake after knockdown. Hit rule: 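a gene counts as active if at least two replicate z-scores exceed ±2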.
The whole screen tested about 22,000 reagents; this is a part drawn at random. Over the whole deposit, about 1,510 (6.9%) were called active. 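Active includes knockdowns raising or lowering LDL uptake; positive z-scores mean more uptake, negative mean less.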 The numbers tell different reagents against one gene apart.

gene	pool no.	robust z-score, replicate 1	robust z-score, replicate 2	robust z-score, replicate 3	outcome
PFKP (phosphofructokinase, platelet)	1	-0.481	0.864	-0.363	inactive
USP32 (ubiquitin specific peptidase 32)	1	-1.19	-1.6	-1.07	inactive
SLCO6A1	1	-0.342	-0.678	-0.507	inactive
KIRREL2 (kirre like nephrin family adhesion molecule 2)	1	-0.133	-0.0669	0.313	inactive
TMED10 (transmembrane p24 trafficking protein 10)	1	-0.831	0.838	-0.78	inactive
PCGF2 (polycomb group ring finger 2)	1	0.378	0.357	0.509	inactive
LOC400781 (retired record)	1	0.619	0.537	0.539	inactive
OLFM3 (olfactomedin 3)	1	0.808	1.17	1.84	inactive
CTSL3P (cathepsin L family member 3, pseudogene)	1	0.216	0.782	1.58	inactive
BNIP1 (BCL2 interacting protein 1)	1	0.659	1.35	0.975	inactive
RASA2 (RAS p21 protein activator 2)	1	0.161	-0.444	-0.0884	inactive
THAP5P1 (THAP domain containing 5 pseudogene 1)	1	1.1	1.12	1.2	inactive
FUZ (fuzzy planar cell polarity protein)	1	-2.17	-2.45	-2.56	active
NOC4L (nucleolar complex associated 4 homolog)	1	-0.275	-1.01	-0.38	inactive
DMKN (dermokine)	1	1.34	1.06	0.596	inactive
GPX6 (glutathione peroxidase 6)	1	-1.42	-1.23	-1.5	inactive
BECN2 (beclin 2)	1	-0.198	0.0274	-0.669	inactive
AGMAT (agmatinase (putative))	1	0.251	0.0991	0.754	inactive
WARS2 (tryptophanyl tRNA synthetase 2, mitochondrial)	1	1.74	1.9	3.01	inactive
ANAPC2 (anaphase promoting complex subunit 2)	1	-0.0437	-1.36	-1.19	inactive
GAPDHP24 (glyceraldehyde 3 phosphate dehydrogenase pseudogene 24)	1	0.104	-0.0542	-0.158	inactive
SUSD3 (sushi domain containing 3)	1	-0.979	-1.34	-1.54	inactive
MTNR1A (melatonin receptor 1A)	1	-1.35	-1.16	-1.1	inactive
MORN4 (MORN repeat containing 4)	1	3.34	2.93	2.34	active
SETD5 (SET domain containing 5)	1	-0.971	0.253	-1.64	inactive
STX4 (syntaxin 4)	1	1.28	1.61	1.14	inactive
ITSN1 (intersectin 1)	1	-1.3	-1.24	-1.3	inactive
NUP155 (nucleoporin 155)	1	1.2	0.859	1.12	inactive
LOC389409 (retired record)	1	-0.0592	0.358	0.362	inactive
RSU1 (Ras suppressor protein 1)	1	1.12	1.52	0.335	inactive
WDR37 (WD repeat domain 37)	1	0.882	0.902	1.38	inactive
RPRM (reprimo, TP53 dependent G2 arrest mediator homolog)	1	-0.771	-0.234	-1.38	inactive
CLASP1 (cytoplasmic linker associated protein 1)	1	0.624	-0.533	0.307	inactive
GNAS (GNAS complex locus)	1	0.459	-0.0816	0.682	inactive
UFC1 (ubiquitin-fold modifier conjugating enzyme 1)	1	-2.04	-0.409	-2.48	active
ACAD11 (acyl-CoA dehydrogenase family member 11)	1	0.104	0.131	-0.195	inactive
DLG3 (discs large MAGUK scaffold protein 3)	1	1.49	1.87	2.19	inactive
ATP6V1E2 (ATPase H+ transporting V1 subunit E2)	1	0.452	0.0469	-0.302	inactive
ATP6V1E2 (ATPase H+ transporting V1 subunit E2)	2	-0.757	-1.54	-1.22	inactive
PDE8B (phosphodiesterase 8B)	1	2.49	1.35	1.2	inactive
TTLL4 (tubulin tyrosine ligase like 4)	1	-0.919	-0.281	-0.694	inactive
ERMN (ermin)	1	0.0873	-0.88	-0.34	inactive
MPPED1 (metallophosphoesterase domain containing 1)	1	-1.82	-1.67	-2.33	inactive
RPL31P23 (ribosomal protein L31 pseudogene 23)	1	-1.73	-2.16	-2.19	active
TFAM (transcription factor A, mitochondrial)	1	0.635	1.35	2.07	inactive
SH3BP1 (SH3 domain binding protein 1)	1	0.559	0.614	0.979	inactive
TMEM87A (transmembrane protein 87A)	1	1.42	0.303	1.66	inactive
ATP6V1C1 (ATPase H+ transporting V1 subunit C1)	1	1.02	1.2	1.01	inactive
MECOM (MDS1 and EVI1 complex locus)	1	-0.68	-0.566	-0.582	inactive
MECOM (MDS1 and EVI1 complex locus)	2	-1.31	-0.93	-1.12	inactive
CSF1 (colony stimulating factor 1)	1	-0.533	0.777	-0.344	inactive
LOC388300 (retired record)	1	-1	-0.751	-0.448	inactive
CCDC137 (coiled-coil domain containing 137)	1	-0.106	-0.00524	-0.129	inactive
CRTC3 (CREB regulated transcription coactivator 3)	1	-1.02	-0.879	-0.917	inactive
SPARCL1 (SPARC like 1)	1	-0.432	-0.507	-1.56	inactive
LOC441117 (retired record)	1	0.234	-0.0878	0.199	inactive
LOC440308 (retired record)	1	0.843	1.03	0.772	inactive
RNF150 (ring finger protein 150)	1	4	3.37	4.11	active
C4orf54 (chromosome 4 open reading frame 54)	1	-0.36	-0.824	-0.583	inactive
MYSM1 (Myb like, SWIRM and MPN domains 1)	1	-0.582	-1.18	-0.154	inactive
HAUS8 (HAUS augmin like complex subunit 8)	1	-0.873	-0.584	-0.525	inactive
ZMYND8 (zinc finger MYND-type containing 8)	1	-0.942	0.32	-1.08	inactive
VPS33B (VPS33B late endosome and lysosome associated)	1	-1.23	-1.29	-0.221	inactive
HMX1 (H6 family homeobox 1)	1	-0.0882	0.186	-0.0276	inactive
ZNF148 (zinc finger protein 148)	1	-0.458	-0.401	-0.232	inactive
LDC1P (leucine decarboxylase 1, pseudogene)	1	2.44	1.88	1.69	inactive
HOXD12 (homeobox D12)	1	0.534	0.065	0.619	inactive
ZNF382 (zinc finger protein 382)	1	2.14	1.79	2.27	active
